Data on two sequences can be found in patent publication US20020111289.

Amino acid sequences for entries named in this document (tags omitted). Residues count along the entry.
UniProt P61244, 2-160: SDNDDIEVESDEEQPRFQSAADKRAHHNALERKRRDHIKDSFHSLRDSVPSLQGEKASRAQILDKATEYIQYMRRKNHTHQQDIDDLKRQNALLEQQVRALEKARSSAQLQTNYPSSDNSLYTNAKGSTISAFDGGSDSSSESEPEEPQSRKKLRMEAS

Construct, isoform or probe ends are uncertain for at least one entry. For part of these data: No signal at the amounts used counts as a negative.

Data set [1] relates to c-Myc wild type. Nature of the data set: activity in cells. Conditions: protein in cells, protein details: MLV-LTR expression plasmid.
Data set [2] has as its system c-MYC (ct-Myc, truncated)/MAX heterodimer. Nature of the data set: EMSA. To be noted: protein translated in vitro, label: 32P end-label.
In data set [3] the test system is c-Myc HLH deletion mutant deletion of amino acids 371-412. Kind of data set: activity in cells. Conditions: no transactivation in NIH3T3; protein in cells; protein details: MLV-LTR expression plasmid.
The target in data set [4] is MAX (UniProt P61244). Nature of the data set: EMSA. Conditions: putative MAX complex bound to DNA supershifted by anti-HA; protein translated in vitro; protein details: C-terminal HA, TNT T7 Quick (Promega); label: 32P end-label.

The sequence “CCGGTACCGGGTTGTGGCAGCCAGTCACCTGCCCGCCGCGTAGCCACACCTCTGCTCCTCAGAGCAATGTCAAGCGGTCACCTGTGATAGCAACAGATCACCTGGCTGCCATCGCCCCTC / ATGAATTCCGGACGTTCTGGGCAGGTGACCGCCACCCATGCGCTGAGGGGCGGACAGGAGGTGCTTCGACTGGGAGGAGGGCGAAGAGTGTAAGGGGGCGGAGGGGCGATGGCAGCCAGG [CDK4 promoter fragment mutant MBS1-4]” displayed an activity on this sequence (fold less active than wild-type promoter) in data set [1] (luciferase in NIH3T3 with cotransfected c-Myc, mutMBS1-4, variant of CDK4 promoter fragment wt MBS1-4, counted as no effect) of 100. The binding result in data set [2] (variant of CDK4 promoter fragment wt MBS1-4) is listed as “no binding”.
“CCGGTACCGGGTTGTGGCAGCCAGTCACGTGCCCGCCGCGTAGCCACACCTCTGCTCCTCAGAGCAATGTCAAGCGGTCACGTGTGATAGCAACAGATCACGTGGCTGCCATCGCCCCTC / ATGAATTCCGGACGTTCTGGGCACGTGACCGCCACCCATGCGCTGAGGGGCGGACAGGAGGTGCTTCGACTGGGAGGAGGGCGAAGAGTGTAAGGGGGCGGAGGGGCGATGGCAGCC [CDK4 promoter fragment wt MBS1-4]”: the “activity on this sequence” value was “not active” in data set [3] and “active” in data set [1] (luciferase transactivation in NIH3T3). Also, the binding result is given as “binds” in data set [4] and “binds” in data set [2] (25 mM Tris pH 7.5, 80 mM NaCl, 35 mM KCl, 5 mM MgCl2, poly(dIdC), room temperature, competed by 40x unlabeled wt but not mutant, HA supershift).
